Reference: PubChem BioAssay AID540276 (National Center for Advancing Translational Sciences (NCATS), 2011)
Where “and” joins values, the source holds several entries; their conditions need not be identical. Equal entries are not always repeated. Hit rate of the full screen: of about 300,000 compounds, about 5,400 (1.8%) were called active. Inconclusive results, whose numbers are uncertain, are shown with a selection of clear calls. The call rests on the fitted dose curve; tested in HEK293 cells. Potencies of inconclusive entries are doubtful fits and often do not repeat.

Test: qHTS for inhibitors of binding or entry into cells for Marburg Virus
Details: Marburg virus pseudotyped entry inhibition, cell reporter; activity change, negative = inhibition: at 37.8 µM (top of the series) unless noted
On the % scale 0 is the no-effect control and ±100 the full control effect; potency means the concentration at half of the fitted maximal effect.

Which Potency does the source give for `Cc1csc2nc(CSc3nc4ccccc4o3)c(Br)n12` here?
Its Potency is inconclusive: 35.5 µM [inhibitor, single point].

Which “activity change, negative = inhibition” value does the source give for `Cc1ccsc1/C=N/NC(=O)C1CC(=O)N(c2ccccc2)C1` (centres undefined) here?
Its value is inactive: 1.97%.

With `O=C(ON=C1CCN(S(=O)(=O)c2ccccc2)CC1)c1ccc(Cl)cc1` as the compound, how does the Potency read?
The Potency was inconclusive: 1.16 µM [inhibitor, single point].

With `CCOc1ccc(C(=O)NCCC2=CCCCC2)cc1OCC` as the compound, how does the Potency read?
The Potency was inconclusive: 17.8 µM [activator, single point].

For `Cc1ccc(C(=O)Nc2c(N)nc(SCC(=O)Nc3cc(C)on3)[nH]c2=O)cc1`, which “activity change, negative = inhibition” value is on record?
Its value is inactive: 2.01%.

Which Potency does the source give for `NC1=NC2(CCCCC2)N(c2cccc(Cl)c2)C(N)=N1` here?
The Potency was inconclusive: 0.164 µM [inhibitor, single point].

With `COC(=O)CSc1nc(NCc2ccccc2)nc(N(C)C)n1` as the compound, how does the Potency read?
The Potency was inconclusive: 5.62 µM [inhibitor, single point].

For `CC(=O)c1cccc(S(=O)(=O)NCC2CCCCC2)c1`, which Potency is on record?
The Potency was inconclusive: 3.55 µM [inhibitor, partial curve, poor fit].

Which Potency does the source give for `COc1ccc(-n2ncc3c(N4CCN(Cc5ccccc5)CC4)ncnc32)cc1` here?
Its Potency is inconclusive: 11.2 µM [inhibitor, partial curve, poor fit].

For `CC(C)CNC(=O)CSc1nnc(-c2ccc(Cl)cc2)n1N`, which Potency is on record?
Its Potency is inconclusive: 3.98 µM [activator, single point].

With `CC1CN(Cc2ccco2)C(=S)N(c2ccccc2)C1=O` (centres undefined) as the compound, how does the “activity change, negative = inhibition” value read?
Its value is inactive: 18.1%.

Which Potency does the source give for `O=C1N/C(=N/S(=O)(=O)c2ccccc2)S/C1=C/c1cccnc1` here?
The Potency was inconclusive: 20 µM [inhibitor, partial curve, poor fit].

Which Potency does the source give for `CN1CCN(C(=O)CCN2C(=O)/C(=C/c3ccccc3Cl)SC2=S)CC1` here?
Its Potency is inconclusive: 10 µM [inhibitor, partial curve, poor fit].

Which Potency does the source give for `CN(C)c1ccc(C(CNS(=O)(=O)c2ccc(F)c(F)c2)c2c[nH]c3ccccc23)cc1` (centres undefined) here?
The Potency was inconclusive: 10 µM [inhibitor, partial curve, poor fit].

For `CN1CCN(S(=O)(=O)c2ccc(NN)nc2)CC1`, which Potency is on record?
The Potency was inconclusive: 35.5 µM [inhibitor, single point].

With `CCOC(=O)c1c(NC(=O)CSc2cn(CCNC(=O)c3ccccc3OC)c3ccccc23)sc2c1CCCC2` as the compound, how does the Potency read?
The Potency was inconclusive: 35.5 µM [inhibitor, single point].

With `Cc1ccc(-n2c(CNc3ccc(F)cc3)nnc2SCC(N)=O)cc1` as the compound, how does the Potency read?
Its Potency is inconclusive: 0.0411 µM [inhibitor, full curve, poor fit].

With `CCCCN(CC)CCCNC(=O)c1cc2cc3ccc(C)cc3nc2o1` as the compound, how does the Potency read?
The Potency was inconclusive: 20 µM [inhibitor, partial curve, poor fit].

Which Potency does the source give for `CC(=O)c1ccc(OCCOc2ccc(Cl)c3cccnc23)cc1` here?
Its Potency is inconclusive: 35.5 µM [activator, single point].

Which Potency does the source give for `COc1ccccc1/C=C\C(=O)NCC(=O)N/N=C/c1cccc(OC)c1O` here?
The Potency was inconclusive: 35.5 µM [inhibitor, single point].

With `C=C(C)COc1ccc(-c2n[nH]c(C)c2Oc2ccccc2OC)c(O)c1` as the compound, how does the Potency read?
The Potency was inconclusive: 14.1 µM [inhibitor, partial curve, poor fit].

For `CCCC(=O)Nc1nnc(S(=O)(=O)N(CC)c2ccc(OC)cc2)s1`, which “activity change, negative = inhibition” value is on record?
The value was inactive: -1.98%.

Which Potency does the source give for `Cc1ccc(C)c(N2CCN(C(=O)c3ccc(CS(=O)(=O)c4ccccc4C)o3)CC2)c1` here?
Its Potency is inconclusive: 18.3 µM [inhibitor, partial curve, poor fit].

For `CCOc1ccc(NC(=O)Cn2c(=O)n(Cc3ccccc3)c(=O)c3sc4ccccc4c32)cc1`, which Potency is on record?
Its Potency is inconclusive: 12.6 µM [activator, single point].

With `CCC1CCc2sc(C(=O)OCC(=O)N(CCOC)c3c(N)n(Cc4ccccc4)c(=O)[nH]c3=O)cc2C1` (centres undefined) as the compound, how does the “activity change, negative = inhibition” value read?
Its value is inactive: -8.64%.

For `O=[N+]([O-])c1cccc(-c2cc(-c3cc(Br)ccc3O)[nH]n2)c1`, which Potency is on record?
The Potency was inconclusive: 10 µM [inhibitor, partial curve, poor fit].

For `CC(C)(C)c1ccc(OCC(=O)NCc2ccco2)c(Br)c1`, which Potency is on record?
The Potency was inconclusive: 0.58 µM [activator, full curve].

With `COC(=O)C1=C(C)OC(N)=C(C#N)C1c1ccc(OC)c(CSc2ccccn2)c1` (centres undefined) as the compound, how does the “activity change, negative = inhibition” value read?
The value was inactive: -10.7%.

Which Potency does the source give for `O=C(c1ccc(Cl)c([N+](=O)[O-])c1)N1CCN(c2ccccn2)CC1` here?
Its Potency is inconclusive: 3.98 µM [activator, single point].

Which “activity change, negative = inhibition” value does the source give for `COc1ccc(C(=O)OCC(=O)Nc2ccc(Cl)c(C(F)(F)F)c2)c(OC)c1OC` here?
The value was inactive: -16.5%.

For `CCOc1cc(CNCCc2c[nH]c3ccccc23)cc(Cl)c1OCC`, which Potency is on record?
Its Potency is inconclusive: 2.31 µM [inhibitor, partial curve, poor fit].

For `COc1ccc(-c2nc3ccccc3c(=O)n2CC(C)C)cc1`, which Potency is on record?
The Potency was inconclusive: 25.1 µM [inhibitor, single point].

Which Potency does the source give for `COC(=O)C(N)Cc1ccc(Cl)cc1` (centres undefined) here?
Its Potency is “inactive and inconclusive: 4.47 µM [activator, full curve, poor fit]”.

For `CCCCCNC(=O)c1ccc2c(=O)[nH]c3c(C(=O)NCC4CCCO4)sc(=S)n3c2c1` (centres undefined), which Potency is on record?
Its Potency is inconclusive: 0.1 µM [inhibitor, full curve, poor fit].

For `Cc1ccc(NC(=O)c2cnccn2)nc1`, which “activity change, negative = inhibition” value is on record?
Its value is inactive: 21% [at 46.1 µM].

Which “activity change, negative = inhibition” value does the source give for `CCOC(=O)/C=C(\C)Sc1cc(=O)oc2ccccc12` here?
Its value is inactive: -28.5%.

Which Potency does the source give for `Cc1cccc(NC(=O)c2cc([N+](=O)[O-])ccc2N2CCCCC2)n1` here?
Its Potency is inconclusive: 0.224 µM [inhibitor, full curve, poor fit].

For `CC(C)c1ccc(N2C(=O)CSC23C(=O)N2CCCc4cccc3c42)cc1` (centres undefined), which “activity change, negative = inhibition” value is on record?
The value was inactive: 7.91%.

For `COc1cc(C=Nc2cccc([N+](=O)[O-])c2C)ccc1OC(C)=O`, which Potency is on record?
Its Potency is inconclusive: 3.98 µM [activator, full curve, poor fit].

Which “activity change, negative = inhibition” value does the source give for `Cc1ccc(NC(=O)CN2C(=O)N/C(=C\c3cccnc3)C2=O)cc1` here?
The value was inactive: -25%.

For `CCN1C(=O)c2cccc3c(NC(=O)c4ccccc4)ccc1c23`, which “activity change, negative = inhibition” value is on record?
Its value is inactive: 2.77%.

For `COc1ccc(Cc2nnc(N/N=C/c3ccc(O)cc3)[nH]c2=O)cc1OC`, which Potency is on record?
The Potency was inconclusive: 2.51 µM [inhibitor, full curve, poor fit].

Which “activity change, negative = inhibition” value does the source give for `Cc1cc(NC(=O)CSc2ncc(C(F)(F)F)cc2Cl)no1` here?
Its value is inactive: 8.87% [at 46.1 µM].

For `COc1cc2c(cc1OC)CN(c1ccc([N+](=O)[O-])c(C(F)(F)F)c1)CC2`, which “activity change, negative = inhibition” value is on record?
Its value is inactive: -15.6%.

For `O=C(O)c1ccc(S(=O)(=O)N2CCC(c3nc(-c4ccccc4Cl)no3)CC2)cc1`, which “activity change, negative = inhibition” value is on record?
The value was inactive: 4.12%.

Which Potency does the source give for `CCOC(=O)/C(=N\Nc1cc(Cl)ccc1Cl)N1CCN(C)CC1` here?
Its Potency is inconclusive: 35.5 µM [inhibitor, single point].

For `CCCCn1c(NS(=O)(=O)c2ccccc2)c(C(=O)OCC)c2nc3ccccc3nc21`, which Potency is on record?
The Potency was active: 4.61 µM.

With `COc1ccc(N2CC(C(=O)Nc3cc(C(F)(F)F)ccc3N3CCCC3)CC2=O)c(OC)c1` (centres undefined) as the compound, how does the Potency read?
The Potency was inconclusive: 8.91 µM [inhibitor, partial curve, poor fit].

For `CCOc1ccc(CCNC(=O)CN2C(=O)CCSc3ccccc32)cc1`, which Potency is on record?
Its Potency is inconclusive: 35.5 µM [inhibitor, single point].

Which Potency does the source give for `CCOc1cc(C(=O)Nc2ccc(S(=O)(=O)Nc3cnc4ccccc4n3)cc2)cc(OCC)c1OCC` here?
Its Potency is inconclusive: 15.8 µM [inhibitor, single point].

Which “activity change, negative = inhibition” value does the source give for `CC(C)OC(=O)c1cc(C(=O)c2cc(Cl)ccc2O)coc1=N` here?
Its value is inactive: -16.7% [at 46.1 µM].

Which “activity change, negative = inhibition” value does the source give for `Cc1ccc(S(=O)(=O)N2CCCCC2C(=O)Nc2ccc(N(C)C)cc2)cc1` (centres undefined) here?
Its value is inactive: -0.383% [at 46.1 µM].

Which “activity change, negative = inhibition” value does the source give for `Cc1ccc(Cn2nnnc2CN2CCC(NC(=O)c3ccc(Br)cc3)CC2)cc1` here?
Its value is inactive: -10.9%.

With `O=C(CN1CCCCC1)Nc1ccccc1` as the compound, how does the “activity change, negative = inhibition” value read?
The value was inactive: -19.2%.

Which “activity change, negative = inhibition” value does the source give for `CCOC(=O)C(O)(c1ccc(N=c2ccccn2C)cc1)C(F)(F)F` (centres undefined) here?
The value was inactive: -0.19%.

For `CCn1cc(C(=O)OCC(=O)Nc2cccc(Cl)c2C)c(=O)c2ccc(C)nc21`, which “activity change, negative = inhibition” value is on record?
Its value is inactive: 3.96% [at 46.1 µM].

For `COc1cc(C(=O)Nc2ccc(N(C)C)cc2)c([N+](=O)[O-])cc1OC`, which “activity change, negative = inhibition” value is on record?
Its value is inactive: -10.1% [at 46.1 µM].

For `CCCCNC(=O)c1ccc(CS(=O)(=O)c2ccc(C)cc2)o1`, which activity change, negative = inhibition is on record?
Its activity change, negative = inhibition is inconclusive: 45.3% [activator].

With `COc1cc(C(=O)OCC(=O)Nc2ccc(N3CCOCC3)cc2)ccc1OCC(C)C` as the compound, how does the “activity change, negative = inhibition” value read?
The value was inactive: -11.9% [at 46.1 µM].

With `Nc1oc2ccccc2c(=O)c1-c1ccc2c(c1)OCO2` as the compound, how does the Potency read?
The Potency was inconclusive: 17.8 µM [activator, single point].

Which Potency does the source give for `C[C@]12CCC(=O)C(O)=C1CC[C@@H]1[C@@H]2CC[C@]2(C)C(=O)CC[C@@H]12` here?
Its Potency is inconclusive: 0.461 µM [inhibitor, full curve, poor fit].

For `COC(=O)c1sccc1NC(=O)c1ccncc1`, which Potency is on record?
The Potency was active: 0.1 µM.

For `O=C(O)C1CCCCC1C(=O)Nc1nc(-c2cccs2)cs1` (centres undefined), which “activity change, negative = inhibition” value is on record?
The value was inactive: 24.1% [at 46.1 µM].

Which Potency does the source give for `CCOC(=O)N1CCN(C(=O)C2CC(=O)N(c3ccc(OC)cc3)C2c2ccc(OC)cc2)CC1` (centres undefined) here?
Its Potency is inconclusive: 15.8 µM [activator, single point].

Which Potency does the source give for `CCc1ccc(OCC(=O)NC2CC(C)(C)NC(C)(C)C2)cc1` here?
The Potency was inconclusive: 12.6 µM [inhibitor, partial curve, poor fit].

For `CC(=NCc1ccco1)c1c(O)n(Cc2ccccc2)c(=O)[nH]c1=O`, which Potency is on record?
The Potency was inconclusive: 35.5 µM [inhibitor, single point].

Which Potency does the source give for `CC(NS(=O)(=O)c1cccc(Cl)c1)C(=O)Nc1ccc(-c2nc3ccccc3s2)cc1` (centres undefined) here?
Its Potency is inconclusive: 1.41 µM [activator, partial curve, poor fit].

For `Cc1cccc2c1-c1sc(C(=O)N3CCN(c4ccc(F)cc4)CC3)cc1CO2`, which “activity change, negative = inhibition” value is on record?
The value was inactive: 2.03% [at 46.1 µM].

For `CC1(C)CC(=O)C(C=NC2CC(C)(C)NC(C)(C)C2)=C(O)C1`, which Potency is on record?
The Potency was inconclusive: 20.6 µM [activator, single point].
